Data from patent publication US20030139584A1.
These are yes or no findings as the source states them, for the method shown. In cells and extracts the contact can be indirect. Binding calls can cover weak binding; strength is not graded here. Sequences can lack the tags named with a protein.

Target: FLAG-tagged TRAF3
Test: summary of the first series (co-immunoprecipitation)

binding: binds
B1: myc-tagged TREX (protein, not shown: small tags and cut ends)
chain: MTGYTMLRNGGVGNGGQTCMLRWSNRIRLTWLSFTLFIILVFFPLIAHYYLTTLDEADEAGKRIFGPRAGSELCEVKHVLDLCRIRESVSEELLQLEAKRQELNSEIAKLNLKIEACKKSIENAKQDLLQLKNVISQTEHSYKELMAQNQPKLSLPIRLLPEKDDAGLPPPKVTRGCRLHNCFDYSRCPLTSGFPVYVYDSDQFAFGSYLDPLVKQAFQATVRANVYVTENAAIACLYVVLVGEMQEPTVLRPADLEKQLFSLPHWRTDGHNHVIINLSRKSDTQNLLYNVSTGRHVAQSTLYAAQYRAGFDLVVSPLVHAMSEPNFMEIPPQVPVKRKYLFTFQGEKIESLRSSLQEARSFEEEMEGDPPADYDDRIIATLKAVQDSKLDQVLVEFTCKNQPKPSLPTEWALCGEREDRLELLKLSTFALIITPGDPRLLISSGCATRLFEALEVGAVPVVLGEQVQLPYHDMLQWNEAALVVPKPRVTEVHFLLRSLSDSDLLAMRRQGRFLWETYFSTADSIFNTVLAMIRTRIQIPAAPIREEVAAEIPHRSGKAAGTDPNMADNGDLDLGPVETEPPYASPKYLRNFTLTVTDCYRGWNSAPGRFHLFPHTPFDPVLPSEAKFLGSGTGFRPIGGGAGGSGKEFQAALGGNVQREQFTVVMLTYEREEVLMNSLERLNGLPYLNKVVVVWNSPKLPSEDLLWPDIGVPIMVVRTEKNSLNNRFLPWNEIETEAILSIDDDAHLRHDEIMFGFWVWREARDRIVGFPGRYHAWDIPHQSWLYNSNYSCELSMVLTGAAFFHKYYAYLYSYVMPQAIRDMVDEYINCEDIAMNFLVSHITRKPPIKVTSRWTFRCPGCPQALSHDDSHFHERHKCINFFVKVYGYMPLLYTQFRVDSVLFKTRLPHDKTKCFKFI
